In patent US5861477A (priority 1996, dated 1999):
Entries after “also recorded” stand apart in the source; their conditions may differ. Part of at least one peptide drawing is inferred or uncertain, most often the ends. Where a SMILES comes first, the peptide text is derived from it. Bridges are numbered along the chain shown (N, C = ends).

Assays:
[1] = Chymotryptic activity: hydrolysis of BTEE; type: biochemical
Experimental: Chymotryptic activity. The catalytic activity of αCT and CHPepz was determined by hydrolysis of BTEE in 0.08M Tris buffer, pH 7.8 containing 0.01M CaCl2 as described (Hummel, B. C. W. (1959) Can. J. Biochem. Physiol. 37, 1393-1399). Assays were done at 25° C. using 8.06×10^-4 μmoles of αCT or 7.49×10^-4 μmoles of ChPepz and different substrate concentrations (from 3 to 6 mM) in a total reaction volume of 1.0 ml. The change of absorbance at 256 nm was monitored on a recording spectrophotometer against a reference cuvette containing 1 ml of the same concentration of BTEE, but without αCT or ChPepz.
1.0 ml of substrate (BTEE) was mixed with solutions (10 μl aliquots) of ChPepz, or negative control peptides (containing 1-10 μg/10 μl) or αCT and activity was monitored by increase in absorbance at 256 nm at 37° C. (or at room temperature).
(§1) ChPepz solution was made in 10^-3 N HCl, since it will not digest itself in this solvent. Solutions of ChPepz were always made immediately before use. […] After mixing ChPepz with substrate (BTEE), there was typically a lag of 2-5 min (depending on pepzyme/substrate ratio) before any change in A256 was observed. However, in the early stages of the purification, the activity needed to be monitored over a period of several hours. It was important to ensure that negative controls (containing unrelated peptides in amounts similar to those of ChPepz in the test samples) were also monitored at the same time because the background absorbance will increase and the test samples had to be corrected for this background. As the sample's purity improves, maximum A256 was achieved more quickly. See, e.g., Atassi, M. Z. in Immunochemistry of Proteins, ed. M. Z. Atassi, Vol. 2, pp. 77-176, Plenum, New York, N.Y. (1977); King, D. S., et al. Int. J. Pept. Prot. Res. 36: 255-266 (1990).
(§2) Tryptic activity. Measurement of tryptic activity was done in 0.046M Tris-HCl buffer, pH 8.0, containing 0.0115M CaCl2 as described (Hummel, B. C. W. (1959), id) using TAME as the substrate. For the assays, 8.4×10^-4 μmoles of […] or 1.6 c 10^-3 μmoles of TrPepz were allowed to hydrolyze different amounts of substrate at 25° C. in a total reaction volume of 1.0 ml. […] Kinetic constants for hydrolysis of BTEE and TAME were determined from the linear plots of 1/initial velocity (Vi in μmoles/min) versus 1/substrate concentration as described (Lineweaver, H. and Burk, D. (1934) J. Amer. Chem. Soc. 56, 658).
(§3) Inhibition of Enzymatic Activity. The effects of inhibitors or disulfide bond reduction on enzymatic activities were done as described above except that the enzymes were pre-mixed (3 hrs, 25° C.) with 10 molar excess of inhibitor (or DTT) prior to addition to the substrate (140-150 molar excess relative to the catalyst). Activities were monitored spectrophotometrically as above and were compared to uninhibited controls.
(§4) In addition, test were performed which compared the activity of the two proteases under differing temperature parameters.

[2] = test system: myoglobin and casein; test: Hydrolysis of proteins by enzymes or peptide enzyme catalysts (peptide maps); type: biochemical, sperm-whale (myoglobin), bovine (casein)
Experimental: Hydrolysis of Proteins by Enzymes or Peptide Enzyme Catalysts. Hydrolyses were done at 37° C. on aliquots (200 μl) containing 1 mg of myoglobin (5.6×10-2 μmoles) or casein (4.2×10^-2 μmoles) in 0.1M triethylamine-acetic acid buffer, pH 8.0 with 51 μg of αCT (2.06×10^-3 μmoles) and 2.9 μg of ChPepz (1.1×10^-3 μmoles) for 31/2 hrs or with 49 μg trypsin (2.06×10^-3 μmoles) and 5.0 μg TrPepz (1.87×10^-3 μmoles) for 8 hrs. The samples were then acidified (to pH 3.0) with 0.1M HCl freeze-dried and redissolved in 100 μl of H2 O at pH 3.0, and the entire sample was applied as a single spot to Whatman No. 3MM paper and subjected, in the first dimension, to ascending chromatography in n-butanol-acetic acid-water (4:1:5, vol/vol) followed by high voltage electrophoresis (3000 volts, 55 min), in the second dimension, in pyridine-acetic acid-water (1:10:289, vol/vol), pH 3.65, as described (Atassi, M. Z. and Saplin, B. J. (1968) Biochemistry 7, 688-698). The papers were then dried, steamed and stained with 0.2% ninhydrin in ethanol and the color was allowed to develop at room temperature. The papers were photographed 48 hrs after staining.

[3] = Tryptic activity: hydrolysis of TAME; type: biochemical; details: for hydrolytic activity on TAME: in words; for rate of hydrolysis of TAME by the final TrPepz design better than this design by: final TrPepz design versus earlier cyclic design
Experimental: as §2
To TAME solutions (1 ml containing different amounts of substrate), an aliquot (10 μl) of TrPepz, or negative control peptide solutions (containing 1-10 μg/10 μl) was added, mixed immediately and the increase of absorbance at 247 nm was measured at 37° C. (or at room temperature).
TrPepz solutions were always made immediately before use. Although TrPepz has no potential tryptic cleavage points, it lost activity on standing in solution at 4° C. […] TrPepz will not act on chromogenic substrates--it was inhibited by p-nitro analine (and probably is inhibited by other aromatic amines). After mixing TrPepz with substrate, there was a lag of 2-5 minutes (depending on pepzyme/substrate ratio) before any change in A247 was observed. In the early stages of the purification, the activity was always monitored over a period of several hours. Negative controls (containing unrelated peptides in amounts similar to those of TrPepz in the test samples) were also monitored at the same time because the background absorbance will increase and the test samples had to be corrected for this background. As the sample's purity improved, maximum A247 was achieved more quickly.
as §3, §4

[4] = Loss of pepzyme activity on storage in solution and on freezing and thawing; type: physicochemical
Experimental: as §1
TrPepz solutions were always made immediately before use. […] In the early stages of the purification, the activity was always monitored over a period of several hours. Negative controls (containing unrelated peptides in amounts similar to those of TrPepz in the test samples) were also monitored at the same time because the background absorbance will increase and the test samples had to be corrected for this background. […]

[5] = hydrolysis of BTEE, pH 7.8 and 25° C.
[6] = pre-mixed 3 hrs, 25° C. with 10 molar excess of inhibitor

In the case of `CC[C@H](C)[C@@H]1NC(=O)CNC(=O)[C@H](Cc2c[nH]c3ccccc23)NC(=O)[C@H](CO)NC(=O)[C@H](C(C)C)NC(=O)CNC(=O)CNC(=O)[C@H](CO)NC(=O)[C@H](CO)NC(=O)CNC(=O)[C@H](CCSC)NC(=O)CNC(=O)[C@H](CC(=O)O)NC(=O)[C@H](CO)NC(=O)CNC(=O)CNC(=O)[C@H](Cc2ccccc2)NC(=O)[C@H](Cc2c[nH]cn2)NC(=O)[C@H](Cc2ccccc2)NC(=O)CNC(=O)[C@@H](N)CSSC[C@@H](C(=O)O)NC(=O)[C@H](Cc2c[nH]cn2)NC(=O)[C@H](C)NC(=O)[C@H](C)NC(=O)CNC(=O)[C@H](CC(=O)O)NC(=O)CNC(=O)CNC1=O` [ChPepz, cyclo(-S-cystinyl-glycyl-phenylalanyl-histidyl-phenylalanyl-glycyl-glycyl-seryl-aspartyl-glycyl-methionyl-glycyl-seryl-seryl-glycyl-glycyl-valyl-seryl-tryptophanyl-glycyl-isoleucyl-glycyl-glycyl-aspartyl-glycyl-alanyl-alanyl- histidyl-cystinyl-S)] (H-CGFHFGGSDGMGSSGGVSWGIGGDGAAHC-OH; disulfide 1-29), the “chymotryptic activity at 4° C.” value ([1]; 4° C.) is reported as “very negligible”, the “activity on BTEE after reduction of the disulfide bond (acyclic)” value ([1]; 10 molar excess of DTT) is reported as “zero activity; also recorded: completely inactivated; also recorded: completely lost; also recorded: virtual loss of catalytic activity” and the “% Activity of Native Enzyme at 35° C.” value ([1]; Temp. 10) is reported as 12.6%. For the same compound, the “% Activity of Native Enzyme at 35° C.” value ([1]; Temp. 35) was 100%, the “% Activity of Native Enzyme at 35° C.” value ([1]; Temp. 48) was 3.5% and the “lag before any change in A256” value ([1]; after mixing with BTEE, depends on pepzyme/substrate ratio) was 2 to 5 min. The Km [1, 5] was 1110 ± 150 µM, the kcat [1, 5] was 147 ± 8.5 sec.^-1 and the “kcat /Km” value [1, 5] was 132000 M⁻¹ s⁻¹. The “hydrolytic activity on BTEE” value ([1]; in words) was “caused hydrolysis of the ester bond”, the “activity on BTEE in presence of DIFP” value [1, 6] was “zero activity; also recorded: completely inactivated; also recorded: completely inhibited” and the “activity on BTEE in presence of TPCK” value [1, 6] was “zero activity; also recorded: completely inactivated; also recorded: completely inhibited”. For the same compound, the “inhibition by p-nitroaniline, analine and benzamidine” value ([1]; will not act on chromogenic substrates) was “inhibited”, the “hydrolysis of myoglobin and casein, peptides compared with those of the respective enzyme” value ([2]; 37° C., pH 8.0, 3 1/2 hrs (ChPepz) or 8 hrs (TrPepz)) was “quite efficient; also recorded: essentially the same as those produced by αCT” and the “proteolytic activity in presence of DIFP” value ([2]; protein substrates) was “inhibited”. The “proteolytic activity in presence of TPCK” value ([2]; protein substrates) was “completely inhibited”, the “hydrolytic activity on TAME” value [3] was “zero activity; also recorded: no catalytic activity; also recorded: no hydrolytic activity; also recorded: not hydrolysed; also recorded: not hydrolyzed; also recorded: inability of ChPepz to hydrolyze TAME” and the “freezing and thawing cycles to complete loss of activity” value [4] was 5 cycles. For the same compound, the “time to complete loss of activity on storage in solution” value ([4]; 4° C.) was 2 days.

In the case of `CC(C)C[C@@H]1NC(=O)CNC(=O)CNC(=O)[C@H](Cc2c[nH]c3ccccc23)NC(=O)[C@H](CO)NC(=O)[C@H](C(C)C)NC(=O)CNC(=O)CNC(=O)[C@H](CO)NC(=O)[C@H](CC(=O)O)NC(=O)[C@@H](N)CSSC[C@@H](C(=O)O)NC(=O)[C@H](Cc2ccc(O)cc2)NC(=O)[C@H](Cc2c[nH]cn2)NC(=O)[C@H](Cc2ccccc2)NC(=O)CNC(=O)CNC(=O)[C@H](Cc2c[nH]cn2)NC(=O)[C@H](C)NC(=O)[C@H](C)NC(=O)CNC(=O)[C@H](CC(=O)O)NC(=O)CNC1=O` [design 1] (H-CDSGGVSWGGLGDGAAHGGFHYC-OH; disulfide 1-23), the “rate of hydrolysis of TAME by the final TrPepz design better than this design by” value (from here on “rate of hydrolysis of TAME”) [3] is reported as 250 times and the “hydrolytic activity on TAME” value [3] is reported as “active”.

For `CC(C)C[C@@H]1NC(=O)CNC(=O)CNC(=O)[C@H](Cc2c[nH]c3ccccc23)NC(=O)[C@H](CO)NC(=O)[C@H](C(C)C)NC(=O)CNC(=O)CNC(=O)[C@H](CO)NC(=O)[C@H](CC(=O)O)NC(=O)[C@@H](NC(=O)[C@H](CCC(N)=O)NC(=O)CNC(=O)[C@H](CO)NC(=O)[C@@H](N)CC(=O)O)CSSC[C@@H](C(=O)O)NC(=O)[C@H](Cc2ccc(O)cc2)NC(=O)[C@H](Cc2c[nH]cn2)NC(=O)[C@H](Cc2ccccc2)NC(=O)CNC(=O)CNC(=O)[C@H](Cc2c[nH]cn2)NC(=O)[C@H](C)NC(=O)[C@H](C)NC(=O)CNC(=O)[C@H](CC(=O)O)NC(=O)CNC1=O` [design 2] (H-DSGQCDSGGVSWGGLGDGAAHGGFHYC-OH; disulfide 5-27), the “peptide maps of 144-hr Mb or casein hydrolysates compared with tryptic hydrolysates” value [2] was “compared well to the respective tryptic hydrolysates”, the “rate of hydrolysis of TAME” value [3] was 123 times and the “hydrolytic activity on TAME” value [3] was “active”.

With `CC(C)C[C@@H]1NC(=O)CNC(=O)[C@H](Cc2c[nH]c3ccccc23)NC(=O)[C@H](CO)NC(=O)[C@H](C(C)C)NC(=O)CNC(=O)CNC(=O)[C@H](CC(=O)O)NC(=O)[C@H](CO)NC(=O)CNC(=O)[C@H](CCC(N)=O)NC(=O)CNC(=O)[C@H](CC(=O)O)NC(=O)[C@H](CO)NC(=O)CNC(=O)CNC(=O)[C@H](Cc2ccccc2)NC(=O)[C@@H](N)CSSC[C@@H](C(=O)O)NC(=O)[C@H](Cc2c[nH]cn2)NC(=O)[C@H](C)NC(=O)[C@H](C)NC(=O)CNC(=O)[C@H](CC(=O)O)NC(=O)CNC(=O)CNC1=O` [design 3] (H-CFGGSDGQGSDGGVSWGLGGDGAAHC-OH; disulfide 1-26) the “peptide maps of 144-hr Mb or casein hydrolysates compared with tryptic hydrolysates” value [2] was “compared well to the respective tryptic hydrolysates”, the “rate of hydrolysis of TAME” value [3] was 72 times and the “hydrolytic activity on TAME” value [3] was “active”.
